{"sequences": {"note": "The chains behind the UniProt entries cited, without tags or fusion partners.", "UniProt P18054, whole entry, looked up": "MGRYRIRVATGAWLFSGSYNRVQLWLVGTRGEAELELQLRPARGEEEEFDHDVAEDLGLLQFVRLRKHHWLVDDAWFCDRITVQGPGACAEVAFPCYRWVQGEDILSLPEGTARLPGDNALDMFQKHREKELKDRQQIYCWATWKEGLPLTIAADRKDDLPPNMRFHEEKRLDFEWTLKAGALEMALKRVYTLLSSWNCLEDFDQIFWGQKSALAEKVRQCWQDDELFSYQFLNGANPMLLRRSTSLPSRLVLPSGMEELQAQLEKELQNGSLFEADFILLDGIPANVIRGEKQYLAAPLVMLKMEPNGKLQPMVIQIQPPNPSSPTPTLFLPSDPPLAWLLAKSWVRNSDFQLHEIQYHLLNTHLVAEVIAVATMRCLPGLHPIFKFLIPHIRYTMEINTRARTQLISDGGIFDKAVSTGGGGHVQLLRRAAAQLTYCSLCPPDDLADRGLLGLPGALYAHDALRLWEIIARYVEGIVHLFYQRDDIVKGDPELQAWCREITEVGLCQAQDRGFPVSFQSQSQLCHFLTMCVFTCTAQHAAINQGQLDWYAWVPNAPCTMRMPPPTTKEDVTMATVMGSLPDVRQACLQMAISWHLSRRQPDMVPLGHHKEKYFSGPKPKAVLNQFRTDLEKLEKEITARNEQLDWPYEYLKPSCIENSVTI"}, "source": "PubChem BioAssay AID1671190", "about": "(National Center for Advancing Translational Sciences (NCATS), 2021)", "note": "About 6,100 (1.1%) of roughly 580,000 compounds were called active. Inconclusive results, whose numbers are uncertain, are shown with a selection of clear calls. Calls come from the whole dose curve; as a rule, active = well fitted inhibition curve with a large enough effect; inconclusive = small, poorly fitted or top-dose-only effect, or another doubt; inactive = no such curve, though single readings can be large or run the other way. Potencies of inconclusive entries are doubtful fits and often do not repeat."}
{"molecular_target": "Polyunsaturated fatty acid lipoxygenase ALOX12 (Homo sapiens) (UniProt P18054)", "test": "Primary qHTS assay for inhibitors of human arachidonate 12S-lipoxygenase (ALOX12): Round 2; note: potency is the fitted concentration of half-maximal effect", "settings": "purified 12hLO, xylenol orange hydroperoxide absorbance; series mostly up to 108 µM", "summary_of_the_method": "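Purified human 12hLO at 150 nM in 25 mM Hepes, 0.01% Triton X-100, pH 7.0, preincubated 15 min at room temperature with compound. Reaction started with 40 uM arachidonic acid, 30 min at room temperature. Hydroperoxide measured by Fe-xylenol orange, 573/405 nm absorbance ratio.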"}
{"molecule": "O=C1C(=C(c2ccccc2)c2ccccc2)C(Cl)C(Cl)(Cl)c2ccccc21", "note": "(stereo not drawn)", "Potency": "active: 10 µM"}
{"molecule": "CC(C)(C)C(=O)c1c(N)[nH]c(C(=O)c2ccccc2)c1-c1c(F)cccc1F", "Potency": "inconclusive: 31.6 µM [inhibitor, partial curve, poor fit]"}
{"molecule": "COc1ccc(C(=O)Nc2cc(C(=O)c3ccccc3)c(C)oc2=O)cc1", "Potency": "inconclusive: 0.316 µM [inhibitor, full curve, poor fit]"}
{"molecule": "CCOc1cccc2cc(S(=O)(=O)c3ccccc3F)c(=O)oc12", "Potency": "inconclusive: 89.1 µM [inhibitor, partial curve, poor fit]"}
{"molecule": "CCCCCC(C)NCc1sccc1C", "note": "(stereo not drawn)", "Potency": "active: 0.447 µM"}
{"molecule": "Cc1ccsc1C(=O)Nc1ccc2c(c1)CCC2", "Potency": "inactive"}
{"molecule": "CCOc1cc(/C=C/C(=O)c2ccc(Cl)cc2)cc(Cl)c1O", "Potency": "active: 7.94 µM"}
{"molecule": "CC1=C(c2ccc(C(C)C)cc2)S(=O)(=O)N=C1N1CCC(C(=O)NCCc2ccco2)CC1", "Potency": "inconclusive: 10 µM [inhibitor, full curve, poor fit]"}
{"molecule": "N#CCCN1CCN(C(C(=O)O)c2cn(CCC(=O)O)c3cc(F)ccc23)CC1", "note": "(stereo not drawn)", "Potency": "inconclusive: 7.08 µM [inhibitor, full curve]"}
{"molecule": "CN1C(=O)C(N=Nc2ccc([N+](=O)[O-])cc2)SC1=S", "note": "(stereo not drawn)", "Potency": "inconclusive: 56.2 µM [inhibitor, partial curve, poor fit]"}
{"molecule": "CN1C(=O)[C@H]2[C@@H](c3ccc(C(F)(F)F)cc3)N[C@]3(CCCN(Cc4cccn4C)C3=O)[C@H]2C1=O", "Potency": "inconclusive: 31.6 µM [inhibitor, partial curve, poor fit]"}
{"molecule": "CCn1ncc(NC(=O)Cn2cc(-c3ncnc4ccsc34)cn2)n1", "Potency": "inactive"}
{"molecule": "CCNC(=S)Nc1cccc(Cl)c1Cl", "Potency": "inconclusive: 100 µM [inhibitor, single point]"}
{"molecule": "Cc1cc(C(=O)N2CC[C@H](NS(=O)(=O)c3cccs3)C[C@H]2C(=O)N[C@H](C)C(N)=O)n(C)n1", "Potency": "inactive"}
{"molecule": "COc1ccc2c(c1)NC(C)(C)C=C2C", "Potency": "inconclusive: 35.5 µM [inhibitor, partial curve]"}
{"molecule": "CCCOc1cccc(C(=O)Nc2cc(-c3ccccc3)no2)c1", "Potency": "inconclusive: 89.1 µM [inhibitor, single point]"}
{"molecule": "CCc1ccc(NC(=O)CN(c2cc(C)cc(C)c2)S(=O)(=O)c2c(C)[nH]c(=O)[nH]c2=O)cc1", "Potency": "inconclusive: 50.1 µM [inhibitor, partial curve, poor fit]"}
{"molecule": "CCCOc1ccc(-c2nc3ccccc3c(C(=O)O)c2C)cc1", "Potency": "inconclusive: 31.6 µM [inhibitor, partial curve, poor fit]"}
{"molecule": "N#Cc1ccccc1S(=O)(=O)N1CCN(CC(=O)Nc2ccccc2C(=O)NC2CC2)CC1", "Potency": "inactive"}
{"molecule": "CCc1nc(-c2c3n(c(=O)n(Cc4cccc(C(=O)OC)c4)c2=O)CCCC3)no1", "Potency": "inactive"}
{"molecule": "COc1cc(C(=O)O[C@H]2CC(C)=CC[C@@]3(C)CC[C@@](O)(C(C)C)[C@H]23)ccc1O", "Potency": "inconclusive: 89.1 µM [inhibitor, partial curve, poor fit]"}
{"molecule": "COc1ccccc1S(=O)(=O)N(C)C[C@@H]1OCc2cn(nn2)CCCC(=O)N([C@H](C)CO)C[C@H]1C", "Potency": "inconclusive: 31.6 µM [inhibitor, partial curve, poor fit]"}
{"molecule": "COc1cccc(Nc2nc(C(N)c3ccccc3Cl)cs2)n1", "note": "(stereo not drawn)", "Potency": "inconclusive: 50.1 µM [inhibitor, partial curve, poor fit]"}
{"molecule": "Cc1ccc(C(=O)N[C@H](C(=O)NC2CCCCCCC2)C(C)C)cc1", "Potency": "inconclusive: 0.794 µM [inhibitor, full curve, poor fit]"}
{"molecule": "CCN(CC(=O)NC1CC1)S(=O)(=O)c1ccccc1", "Potency": "inactive"}
{"molecule": "CC(=O)Oc1c(-c2ccc(NC(=O)c3ccco3)cc2)c(-c2cccc(C)c2)nn1-c1ccc(F)cc1", "Potency": "inconclusive: 7.08 µM [inhibitor, full curve]"}
{"molecule": "COC(=O)c1cc(OC(=O)c2cc(OC)cc(OC)c2)cc(C(=O)OC)c1", "Potency": "inconclusive: 6.31 µM [inhibitor, full curve, poor fit]"}
{"molecule": "CN(C)CCCN1c2ccc3ccccc3c2Sc2cccc(Cl)c21", "Potency": "inconclusive: 44.7 µM [inhibitor, partial curve, poor fit]"}
{"molecule": "Cc1ccc(C)c(N2CCN(C(=O)CSCc3ccccc3Cl)CC2)c1", "Potency": "inconclusive: 70.8 µM [inhibitor, partial curve, poor fit]"}
{"molecule": "CCOC(=O)C1=NN(N=O)C2(CC(=O)N(c3cc(C)cc(C)c3)C2=O)C1", "note": "(stereo not drawn)", "Potency": "inconclusive: 8.91 µM [inhibitor, partial curve, poor fit]"}
{"molecule": "O=C(CSCc1coc(-c2ccc(Cl)cc2)n1)NC1CCCCCC1", "Potency": "inactive"}
{"molecule": "CCCn1c(N)c(N(CCOC)C(=O)c2cc3c(s2)CCC(CC)C3)c(=O)[nH]c1=O", "note": "(stereo not drawn)", "Potency": "inconclusive: 39.8 µM [inhibitor, partial curve, poor fit]"}
{"molecule": "CN(C)C(=O)C1CN(C(=O)CC2CCCCC2)CC12CCOCC2", "note": "(stereo not drawn)", "Potency": "inactive"}
{"molecule": "CCOc1cc(/C=C(\\C#N)C(=O)NCC2CCCO2)ccc1OCC(N)=O", "note": "(stereo not drawn)", "Potency": "inconclusive: 44.7 µM [inhibitor, partial curve, poor fit]"}
{"molecule": "c1cc(CNCCCn2ccnc2)ccn1", "Potency": "inconclusive: 11.2 µM [inhibitor, full curve]"}
{"molecule": "Cn1c(=O)c2c(nc(NN=C3CCCC3)n2C)n(C)c1=O", "Potency": "inconclusive: 112 µM [inhibitor, single point]"}
{"molecule": "O=C(CC(O)c1ccccc1)Nc1ccccn1", "note": "(stereo not drawn)", "Potency": "inconclusive: 39.8 µM [inhibitor, partial curve, poor fit]"}
{"molecule": "NC(=O)c1ccc(-c2nnn(CC(=O)N3CCCC3c3ccc4c(c3)OCCO4)n2)cc1", "note": "(stereo not drawn)", "Potency": "inconclusive: 126 µM [inhibitor, single point]"}
{"molecule": "FC(F)(F)c1ccc(/C=N/Nc2cc(C(F)(F)F)ccc2Cl)cc1", "Potency": "inconclusive: 44.7 µM [inhibitor, partial curve, poor fit]"}
{"molecule": "O=C(CCC1CCCCC1)NCCCNC(=O)CCC1CCCCC1", "Potency": "inactive"}
{"molecule": "CCN(CC)CCCN=Cc1c(O)n(-c2c(C)cccc2C)c(=O)c2ccccc12", "Potency": "inconclusive: 112 µM [inhibitor, single point]"}
{"molecule": "Cc1ccc(OCCOCCN2CCCC2)c(Br)c1", "Potency": "inconclusive: 2.82 µM [inhibitor, full curve, poor fit]"}
{"molecule": "O=C(CNC(=S)N(Cc1ccccc1)Cc1ccccc1F)NCc1ccccc1", "Potency": "inactive"}
{"molecule": "Cc1ccc(C(=O)/C=C/NNC(=O)c2ccccc2O)cc1", "Potency": "inconclusive: 22.4 µM [inhibitor, full curve]"}
{"molecule": "Cc1ccc(CN(Cc2ccco2)C(=O)COc2ccc(C)c(C)c2)cc1", "Potency": "inconclusive: 112 µM [inhibitor, partial curve, poor fit]"}
{"molecule": "CC(C)(C)c1ccc(C(=O)NCC(c2ccc(Cl)cc2)N2CCOCC2)cc1", "note": "(stereo not drawn)", "Potency": "inconclusive: 0.199 µM [inhibitor, full curve, poor fit]"}
{"molecule": "CCOc1ccc(NS(=O)(=O)c2ccc3c4c(cccc24)C(=O)N3)cc1", "Potency": "inconclusive: 89.1 µM [inhibitor, partial curve, poor fit]"}
{"molecule": "Cc1nc(=O)c(-c2ccccc2)c(C)n1-c1ccccc1Cl", "Potency": "inconclusive: 141 µM [inhibitor, single point]"}
{"molecule": "C/C(N)=C(/C#N)C(=O)COC(=O)c1cc(-c2ccc(C)cc2)nc2ccccc12", "Potency": "inconclusive: 5.01 µM [inhibitor, full curve, poor fit]"}
{"molecule": "Cc1ccc(NC(=O)c2ccc3c(O)c(S(=O)(=O)c4ccccc4)c(=O)[nH]c3c2)cc1Cl", "Potency": "inconclusive: 112 µM [inhibitor, partial curve, poor fit]"}
{"molecule": "CC(C)c1nnc(NC(=O)c2cc(-c3ccncc3)nc3ccccc23)s1", "Potency": "inactive"}
{"molecule": "COc1ccc2cc(C(=O)O)nnc2c1", "Potency": "inconclusive: 0.355 µM [inhibitor, full curve, poor fit]"}
{"molecule": "COC[C@H]1CCCN1[C@@H]1[C@H](O)[C@H](CO)O[C@@H]1CN(Cc1ccc(F)cc1)Cc1ccc(F)cc1", "Potency": "inconclusive: 20 µM [inhibitor, partial curve, poor fit]"}
{"molecule": "COC(=O)CSc1nnc(NC(=O)C2CC(=O)N(c3ccc(F)cc3)C2)s1", "note": "(stereo not drawn)", "Potency": "inconclusive: 44.7 µM [inhibitor, partial curve]"}
{"molecule": "O=C1OC(c2ccccc2)=C/C1=C/N1CCOCC1", "Potency": "inconclusive: 25.1 µM [inhibitor, partial curve, poor fit]"}
{"molecule": "Cc1ccc(S(=O)(=O)N2CCN(C(=O)COC(=O)CCOc3ccccc3C)CC2)cc1", "Potency": "inconclusive: 89.1 µM [inhibitor, partial curve, poor fit]"}
{"molecule": "COc1ccc(NC(=O)c2ccc([N+](=O)[O-])o2)cc1", "Potency": "inactive"}
{"molecule": "CN(C)c1cccc(C(=O)NCc2ccccc2)c1", "Potency": "inactive"}
{"molecule": "CN(C)S(=O)(=O)c1ccc(Cl)c(C(=O)Nc2ccccc2[N+](=O)[O-])c1", "Potency": "inactive"}
{"molecule": "C=C1c2cccc(O)c2C(=O)C2C(=O)[C@]3(O)C(=O)C(C(N)=O)C(=O)[C@@H](N(C)C)[C@@H]3[C@@H](O)[C@H]12", "note": "(stereo partly drawn)", "Potency": "inconclusive: 20 µM [inhibitor, full curve]"}
{"molecule": "CC(C)(C)C(=O)c1c(N)[nH]c(C(=O)c2ccccc2)c1-c1ccccc1", "Potency": "inactive"}
{"molecule": "COc1cc(C(=O)NCc2coc(-c3cccs3)n2)ccc1C", "Potency": "inconclusive: 126 µM [inhibitor, partial curve, poor fit]"}
{"molecule": "CC1(C)Cc2sc3c(=O)[nH]c(=S)[nH]c3c2CO1", "Potency": "inconclusive: 56.2 µM [inhibitor, partial curve, poor fit]"}
